PubChem BioAssay AID493246 | Drosophila RNAi Screening Center | 2011
The screen tested about 21,000 reagents; below is an unselected part of those with a known target gene and a result. Over the whole deposit, 429 (2%) were called active. 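Values are raw and not normalised between plates; calls rest on per-plate z-scores that were not deposited.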 The record does not give: the amount of reagent, the time to read-out.

- Assay: 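Genes fly cells need to grow and stay alive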 (primary screen)
- Cells: Drosophila Kc and S2R+ cells
- Reagents: long dsRNA against Drosophila genes
- Measured: 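Raw, unnormalised count of remaining cells in each well; per-plate z-scores of cell number underlie the calls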
- Direction: Kc cell number and S2R+ cell number: higher = more cells remaining
- Call rule: 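Active when the per-plate z-score of cell number is 3 or more in the direction of fewer cells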

The opening 2 records, ahead of the listing:
{"gene knocked down":"PK2-R1 (GeneID 41639)","dsRNA":"DRSC16447","Kc cell number, rep 1":1.37e6,"Kc cell number, rep 2":1.42e6,"S2R+ cell number, rep 1":1.05e6,"S2R+ cell number, rep 2":1.15e6,"Outcome":"inactive"}
{"gene knocked down":"Faa (GeneID 45577)","dsRNA":"DRSC08451","Kc cell number, rep 1":1.37e6,"Kc cell number, rep 2":1.47e6,"S2R+ cell number, rep 1":1.31e6,"S2R+ cell number, rep 2":1.21e6,"Outcome":"inactive"}

The listing, from the first entry:
{"gene knocked down":"PK2-R1 (GeneID 41639)","dsRNA":"DRSC16447","Kc cell number, rep 1":1.37e6,"Kc cell number, rep 2":1.42e6,"S2R+ cell number, rep 1":1.05e6,"S2R+ cell number, rep 2":1.15e6,"Outcome":"inactive"}
{"gene knocked down":"Faa (GeneID 45577)","dsRNA":"DRSC08451","Kc cell number, rep 1":1.37e6,"Kc cell number, rep 2":1.47e6,"S2R+ cell number, rep 1":1.31e6,"S2R+ cell number, rep 2":1.21e6,"Outcome":"inactive"}
{"gene knocked down":"TTLL1A (GeneID 32704)","dsRNA":"DRSC20121","Kc cell number, rep 1":1.45e6,"Kc cell number, rep 2":1.52e6,"S2R+ cell number, rep 1":1.00e6,"S2R+ cell number, rep 2":1.14e6,"Outcome":"inactive"}
{"gene knocked down":"DEF8 (GeneID 39381)","dsRNA":"DRSC09840","Kc cell number, rep 1":1.36e6,"Kc cell number, rep 2":1.40e6,"S2R+ cell number, rep 1":1.26e6,"S2R+ cell number, rep 2":1.22e6,"Outcome":"inactive"}
{"gene knocked down":"robl62A (GeneID 38170)","dsRNA":"DRSC08153","Kc cell number, rep 1":1.41e6,"Kc cell number, rep 2":1.32e6,"S2R+ cell number, rep 1":1.00e6,"S2R+ cell number, rep 2":1.20e6,"Outcome":"inactive"}
{"gene knocked down":"Usp5 (GeneID 38375)","dsRNA":"DRSC08244","Kc cell number, rep 1":1.63e6,"Kc cell number, rep 2":1.51e6,"S2R+ cell number, rep 1":1.10e6,"S2R+ cell number, rep 2":1.34e6,"Outcome":"inactive"}
{"gene knocked down":"mTTF (GeneID 34837)","dsRNA":"DRSC01909","Kc cell number, rep 1":1.51e6,"Kc cell number, rep 2":1.58e6,"S2R+ cell number, rep 1":1.13e6,"S2R+ cell number, rep 2":1.29e6,"Outcome":"inactive"}
{"gene knocked down":"Slh (GeneID 33434)","dsRNA":"DRSC00789","Kc cell number, rep 1":1.41e6,"Kc cell number, rep 2":1.50e6,"S2R+ cell number, rep 1":9.14e5,"S2R+ cell number, rep 2":1.09e6,"Outcome":"inactive"}
{"gene knocked down":"otu (GeneID 31789)","dsRNA":"DRSC18811","Kc cell number, rep 1":1.53e6,"Kc cell number, rep 2":1.53e6,"S2R+ cell number, rep 1":1.05e6,"S2R+ cell number, rep 2":1.18e6,"Outcome":"inactive"}
{"gene knocked down":"CG15544 (GeneID 43655)","dsRNA":"DRSC15082","Kc cell number, rep 1":1.44e6,"Kc cell number, rep 2":1.53e6,"S2R+ cell number, rep 1":1.04e6,"S2R+ cell number, rep 2":1.17e6,"Outcome":"inactive"}
{"gene knocked down":"CG31997 (GeneID 319064)","dsRNA":"DRSC17105","Kc cell number, rep 1":1.39e6,"Kc cell number, rep 2":1.62e6,"S2R+ cell number, rep 1":1.03e6,"S2R+ cell number, rep 2":1.12e6,"Outcome":"inactive"}
{"gene knocked down":"CG43795 (GeneID 5740629)","dsRNA":"DRSC04192","Kc cell number, rep 1":1.49e6,"Kc cell number, rep 2":1.60e6,"S2R+ cell number, rep 1":1.31e6,"S2R+ cell number, rep 2":1.33e6,"Outcome":"inactive"}
{"gene knocked down":"CG43795 (GeneID 5740629)","dsRNA":"DRSC04193","Kc cell number, rep 1":1.75e6,"Kc cell number, rep 2":1.87e6,"S2R+ cell number, rep 1":1.47e6,"S2R+ cell number, rep 2":1.58e6,"Outcome":"inactive"}
{"gene knocked down":"CG43795 (GeneID 5740629)","dsRNA":"DRSC04194","Kc cell number, rep 1":1.53e6,"Kc cell number, rep 2":1.62e6,"S2R+ cell number, rep 1":1.27e6,"S2R+ cell number, rep 2":1.36e6,"Outcome":"inactive"}
{"gene knocked down":"CG43795 (GeneID 5740629)","dsRNA":"DRSC04309","Kc cell number, rep 1":1.64e6,"Kc cell number, rep 2":1.69e6,"S2R+ cell number, rep 1":1.24e6,"S2R+ cell number, rep 2":1.33e6,"Outcome":"inactive"}
{"gene knocked down":"CG43795 (GeneID 5740629)","dsRNA":"DRSC04310","Kc cell number, rep 1":1.57e6,"Kc cell number, rep 2":1.62e6,"S2R+ cell number, rep 1":1.17e6,"S2R+ cell number, rep 2":1.34e6,"Outcome":"inactive"}
